Experimental findings from patent US10947273B2 (Institut Europeen de Biologie Cellulaire, priority 2015, dated 2021) are described below.

The data set can be described thus: general procedure: Fmoc solid-phase peptide synthesis; Rink-amide resin; HBTU/DIEA. To be noted: whole synthesis.

The star is where a group is joined. Palmitoyl = CCCCCCCCCCCCCCCC(=O)*

Take “Chol-Ala-Arg-Pro-Ala-Lys-NH2 (ARPAK; N-cholesteryl, C-amide; BINDING (1)..(1) Chol-Ala; MOD_RES (5)..(5) AMIDATION)”: the “final purity (method not given)” value amounted to 97% and the isolated yield is 50%.
As to Palmitoyl-AAPAK-NH2, the “final purity (method not given)” value is given as 99% and the isolated yield is reported as 75%.
For Palmitoyl-ARAAK-NH2 the same measures were 93% and 60%.
Taken in the same sequence, the figures for Palmitoyl-ARPAK-NH2 were 93% and 40%.
Turning to Palmitoyl-RPAK-OH, the “final purity (method not given)” value turned out to be 99% and the isolated yield was 60%.
